Laboratory results from patent US12396959B2, “Thermoresponsive hydrogel containing polymer microparticles for noninvasive ocular drug delivery” (University of Pittsburgh—Of the Commonwealth System of …, priority 2013, dated 2025).
For at least one compound, name, drawing or mass did not settle the structure.

Test: Loading and release of other drugs from microparticles embedded within the gel
Assay type: physicochemical
From the text: The loading and release of other drugs (moxiflxacin and vancomycin) with the microparticles embedded within the gel has also been confirmed.

With `COc1c(N2C[C@@H]3CCCN[C@@H]3C2)c(F)cc2c(=O)c(C(=O)O)cn(C3CC3)c12` [moxiflxacin] the “loading and release with microparticles embedded within the gel” value was “confirmed”.
